Literature values as cited in patent US6953814B2, “Natural insect repellant” (Stratacor, Inc., priority 1997, dated 2005).
Some entries share one result that the patent states for a list of compounds.

System: yellow fever mosquito (Aedes aegypti (L.))
Details: human skin, approximately 2 mg/cm^2; cited from earlier work

| Structure (SMILES) | Rating against the yellow fever mosquito |
| --- | --- |
| CCCCCCCCCC(=O)O [Decanoic acid] | 4A (rated 4A (300+ min.)) |
| CCCCCCCCC(=O)O [Nonanoic acid] | 4 (rated 4 (180+ min)) |
| CCCCCCCCCCC(=O)O [Undecanoic acid] | 4A (rated 4A (300+ min.)) |
